Results: paper PMC5643558
Results are given in words; binding and its absence hold for the method and conditions named. Binding seen in cells or lysates may run through a third protein. Some binding calls cover weakened binding; strength is not graded here. For part of these data: Sequences can lack the tags named with a protein.

Chains of the proteins cited; added tags and fusions are not shown.
UniProt P31751: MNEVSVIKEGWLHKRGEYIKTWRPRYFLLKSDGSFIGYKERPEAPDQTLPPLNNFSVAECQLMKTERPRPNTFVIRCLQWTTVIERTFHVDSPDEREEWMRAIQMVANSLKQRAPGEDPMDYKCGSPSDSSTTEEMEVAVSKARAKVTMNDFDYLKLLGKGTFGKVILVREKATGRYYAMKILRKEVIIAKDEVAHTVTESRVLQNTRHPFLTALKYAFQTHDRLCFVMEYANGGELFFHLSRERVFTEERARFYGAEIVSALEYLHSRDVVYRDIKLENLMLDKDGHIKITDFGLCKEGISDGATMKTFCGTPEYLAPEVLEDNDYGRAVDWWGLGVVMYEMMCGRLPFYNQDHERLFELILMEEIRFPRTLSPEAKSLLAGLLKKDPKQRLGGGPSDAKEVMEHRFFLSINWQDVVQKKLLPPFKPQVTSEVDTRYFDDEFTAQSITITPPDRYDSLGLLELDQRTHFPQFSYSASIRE
UniProt P31749: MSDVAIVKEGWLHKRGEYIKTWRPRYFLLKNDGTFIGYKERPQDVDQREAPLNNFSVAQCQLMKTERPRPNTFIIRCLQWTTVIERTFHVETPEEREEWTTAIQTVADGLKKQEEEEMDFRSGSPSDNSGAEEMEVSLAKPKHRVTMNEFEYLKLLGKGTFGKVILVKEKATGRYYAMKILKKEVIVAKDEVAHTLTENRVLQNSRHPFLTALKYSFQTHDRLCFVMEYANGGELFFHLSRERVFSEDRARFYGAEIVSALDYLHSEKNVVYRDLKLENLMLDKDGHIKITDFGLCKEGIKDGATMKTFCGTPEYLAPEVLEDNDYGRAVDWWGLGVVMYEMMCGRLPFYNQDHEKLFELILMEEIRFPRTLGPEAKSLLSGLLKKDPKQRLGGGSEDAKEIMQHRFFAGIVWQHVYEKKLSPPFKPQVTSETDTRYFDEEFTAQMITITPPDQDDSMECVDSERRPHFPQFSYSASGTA
UniProt P19474: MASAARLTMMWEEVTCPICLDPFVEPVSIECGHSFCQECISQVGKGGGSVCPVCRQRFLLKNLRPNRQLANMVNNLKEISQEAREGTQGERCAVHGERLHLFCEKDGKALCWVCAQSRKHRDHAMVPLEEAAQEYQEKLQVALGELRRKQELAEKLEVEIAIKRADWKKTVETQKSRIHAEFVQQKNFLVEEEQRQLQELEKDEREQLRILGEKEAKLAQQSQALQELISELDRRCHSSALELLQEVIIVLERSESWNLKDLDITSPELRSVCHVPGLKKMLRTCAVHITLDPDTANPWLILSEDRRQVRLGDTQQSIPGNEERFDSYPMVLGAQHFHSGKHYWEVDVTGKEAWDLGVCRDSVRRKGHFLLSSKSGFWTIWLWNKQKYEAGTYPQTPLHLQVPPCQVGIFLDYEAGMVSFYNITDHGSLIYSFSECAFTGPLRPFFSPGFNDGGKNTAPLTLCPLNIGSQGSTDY

How the values were obtained:
Flag-PFKP (human) = molecular target: T1, Flag-PFKP (human) (UniProt Q01813); test: co-IP; Flag-PFKP and HA-AKT1/2 expressed in 293T cells
T1 sequence: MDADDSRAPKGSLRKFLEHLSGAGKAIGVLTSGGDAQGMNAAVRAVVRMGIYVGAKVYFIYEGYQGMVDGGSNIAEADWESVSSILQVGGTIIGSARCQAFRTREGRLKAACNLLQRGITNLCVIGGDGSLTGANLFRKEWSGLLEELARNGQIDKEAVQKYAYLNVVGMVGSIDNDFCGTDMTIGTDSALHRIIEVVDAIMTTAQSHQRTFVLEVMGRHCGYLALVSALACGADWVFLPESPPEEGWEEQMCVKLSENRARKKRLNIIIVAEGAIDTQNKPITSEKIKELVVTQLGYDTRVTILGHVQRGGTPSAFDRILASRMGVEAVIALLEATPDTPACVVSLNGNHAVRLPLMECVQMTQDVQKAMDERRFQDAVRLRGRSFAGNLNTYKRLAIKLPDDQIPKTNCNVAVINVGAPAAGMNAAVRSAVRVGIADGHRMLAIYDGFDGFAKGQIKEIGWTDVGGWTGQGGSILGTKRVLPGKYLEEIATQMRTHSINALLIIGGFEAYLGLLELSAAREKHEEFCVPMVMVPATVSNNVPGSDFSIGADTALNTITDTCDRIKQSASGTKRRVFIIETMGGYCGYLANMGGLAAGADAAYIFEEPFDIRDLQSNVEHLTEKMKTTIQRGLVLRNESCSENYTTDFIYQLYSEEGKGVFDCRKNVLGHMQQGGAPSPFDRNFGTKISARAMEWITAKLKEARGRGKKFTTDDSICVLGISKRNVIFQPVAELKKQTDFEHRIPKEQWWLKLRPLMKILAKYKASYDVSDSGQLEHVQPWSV

SFB-PFKP (human) = molecular target: T2, SFB-PFKP (human) (UniProt Q01813); test: pull-down; 293T cells co-transfected with SFB-PFKP and WT HA-TRIM21 or its truncation mutants for 24 h; pull-down of SFB-PFKP
T2 sequence: T1 sequence

binding (Flag-PFKP (human))	binding (SFB-PFKP (human))	Substance
binds		HA-AKT2 (from UniProt P31751 1-481)
binds		HA-AKT1 (from UniProt P31749 1-480)
	binds	WT HA-TRIM21 (from UniProt P19474 1-475)
